Laboratory results as given in paper PMC10280940.
No constants are given. Whether binding was seen depends on the method and setting. In cells and extracts the contact can be indirect. Some binding calls cover weakened binding; strength is not graded here. One block for each substance: values may come before it.

Sequences of proteins named here, by UniProt entry; tags and fusion partners are left off. A change or cut given only in a name is not applied to a line headed by its entry.
UniProt O00425: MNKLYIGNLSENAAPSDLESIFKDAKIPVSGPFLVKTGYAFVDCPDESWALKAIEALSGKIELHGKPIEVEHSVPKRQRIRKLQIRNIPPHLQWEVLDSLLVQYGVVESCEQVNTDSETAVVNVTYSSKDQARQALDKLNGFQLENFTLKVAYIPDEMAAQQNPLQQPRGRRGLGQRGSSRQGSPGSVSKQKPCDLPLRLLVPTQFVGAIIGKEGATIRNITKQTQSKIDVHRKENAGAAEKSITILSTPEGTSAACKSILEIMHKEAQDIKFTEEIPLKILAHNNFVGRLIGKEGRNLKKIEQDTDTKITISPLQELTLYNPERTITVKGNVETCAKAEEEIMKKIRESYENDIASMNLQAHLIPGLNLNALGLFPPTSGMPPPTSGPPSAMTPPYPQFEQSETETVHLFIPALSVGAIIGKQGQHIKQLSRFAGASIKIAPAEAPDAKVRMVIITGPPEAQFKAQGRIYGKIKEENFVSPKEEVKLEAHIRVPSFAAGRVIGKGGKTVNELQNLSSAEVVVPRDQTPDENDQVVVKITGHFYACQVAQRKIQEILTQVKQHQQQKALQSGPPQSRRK
UniProt Q14258: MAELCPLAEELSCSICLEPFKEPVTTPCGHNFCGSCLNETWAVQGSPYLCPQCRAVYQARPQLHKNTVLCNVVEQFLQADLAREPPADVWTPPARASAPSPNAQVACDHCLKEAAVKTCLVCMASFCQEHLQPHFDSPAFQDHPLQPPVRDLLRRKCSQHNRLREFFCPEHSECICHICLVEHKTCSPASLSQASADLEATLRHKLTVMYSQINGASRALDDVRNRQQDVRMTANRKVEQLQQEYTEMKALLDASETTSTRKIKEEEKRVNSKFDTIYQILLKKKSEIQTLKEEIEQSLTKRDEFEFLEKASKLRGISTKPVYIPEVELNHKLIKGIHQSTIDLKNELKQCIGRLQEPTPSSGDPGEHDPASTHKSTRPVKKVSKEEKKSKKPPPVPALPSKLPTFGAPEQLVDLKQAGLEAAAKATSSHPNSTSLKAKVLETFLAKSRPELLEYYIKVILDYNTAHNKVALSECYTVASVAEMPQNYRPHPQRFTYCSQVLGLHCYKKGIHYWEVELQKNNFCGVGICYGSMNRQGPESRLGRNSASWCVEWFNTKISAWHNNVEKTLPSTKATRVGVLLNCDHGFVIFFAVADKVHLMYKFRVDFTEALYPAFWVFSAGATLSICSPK

Experiments:
[1] = molecular target: Full-length IGF2BP3, GFP-tagged (pEGFP-N1) (UniProt O00425); test: co-IP; lysates of SGC7901 and BGC823 cells transfected with GFP-tagged full-length IGF2BP3 or truncations; magnetic beads cross-linked with GFP antibody (Roche), overnight at 4 °C; TRIM25 detected by Western blot
[2] = molecular target: HA-tagged TRIM25 (pCMV3-N-HA-TRIM25) (UniProt Q14258); test: co-IP; lysates of SGC7901 and BGC823 cells with HA-tagged TRIM25; magnetic beads cross-linked with HA antibody (Abmart) or IgG, overnight at 4 °C; IGF2BP3 detected by Western blot
[3] = molecular target: Insulin like growth factor II mRNA binding protein 3 (IGF2BP3), endogenous (human (endogenous in SGC7901 and BGC823)) (UniProt O00425); test: co-IP; lysates of SGC7901 and BGC823 cells; magnetic beads cross-linked with IGF2BP3 antibody (Abcam) or IgG, overnight at 4 °C; TRIM25 detected by Western blot

- binding [1]: binds
Substance: HA-tagged TRIM25 (pCMV3-N-HA-TRIM25) (from UniProt Q14258 1-630)

- binding [2]: binds
Substance: Insulin like growth factor II mRNA binding protein 3 (IGF2BP3), endogenous (from UniProt O00425-1 1-579)

- binding [3]: binds
Substance: Tripartite motif-containing 25 (TRIM25), endogenous (from UniProt Q14258 1-630)
